Reference: PubChem BioAssay AID1347076 (National Center for Advancing Translational Sciences (NCATS), 2019)
The campaign covered roughly 400,000 compounds. About 13,000 (3.2%) were called active. Inconclusive means that the source gave no clear call. Such entries were picked first, then a sample of the others. The call rests on the fitted dose curve; in most records, active means well fitted cell-killing curve with a large enough effect; inconclusive means small, poorly fitted or top-dose-only effect, or effect the other way; inactive means flat fitted curve, though single readings scatter. Potencies of inconclusive entries are doubtful fits and often do not repeat.

Assay: qHTS assay for MDR1-selective chemotherapeutics: Primary screen using the drug-selected MDR subline cells KB-V1; further: nearly all actives have a fitted effect of over 60% in size
Conditions: KB-V1 MDR cells viability, CellTiter-Glo, 72 h; activity change, negative = cytotoxicity: at 46.1 µM (top of the series)
Summary of the method: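 Cells of the MDR subline KB-V1 are plated, dosed with compound at multiple concentrations, and incubated 72 h at 37 degrees C; CellTiter-Glo is then added and luminescence read after 10 min.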
On the % scale 0 is the no-effect control and ±100 the full control effect; potency means the concentration at half of the fitted maximal effect.

| Compound | activity change, negative = cytotoxicity | Potency |
| --- | --- | --- |
| O=C(Cn1ncc2c1-c1ccccc1OC2)N1CCN(c2ccccc2)CC1 | inactive: 5.39% | – |
| COc1ccc(/C=C/C(=O)NC(C)CCc2ccccc2)cc1OC (stereo not drawn) | inactive: -0.978% | – |
| COc1cc(/C=N/NC(=O)c2ccc(O)cc2)ccc1OCC(=O)N1CC(C)OC(C)C1 (stereo not drawn) | inactive: 4.26% | – |
| N#Cc1ccccc1OCC(=O)OCC(=O)c1c[nH]c2ccccc12 | – | inconclusive: 29.1 µM [rising, single point] |
| O=C(/C=C/c1c(F)cccc1Cl)N1CCOCC1 | inactive: -6.07% | – |
| O=C1CS/C(=N/N=C/c2cccs2)N1Cc1ccc(F)cc1 | inactive: -31.5% | – |
| Cc1ccc(C(=O)O)cc1NC(=O)C1CCCN1S(=O)(=O)c1cccc2nsnc12 (stereo not drawn) | inconclusive: 7.68% | – |
| CCc1nc2ccccc2nc1N1CCN(S(=O)(=O)c2ccc(Cl)cc2)CC1 | inactive: 9.1% | – |
| OC(CNCc1ccccc1)(c1ccccc1)c1ccccc1 | inactive: -0.55% | – |
| Cc1ccccc1NS(=O)(=O)c1nnc(NC(=O)CC(C)C)s1 | inactive: 5.88% | – |
| O=Nc1c(O)c2ccccc2c2ccccc12 | – | active: 16.4 µM |
| O=C(NCc1ccc(Cl)cc1)c1ccc(Cn2cc(C(F)(F)F)ccc2=O)cc1 | – | active: 16.4 µM |
| O=C(c1cc(C2CC2)nn1-c1ccccc1)N1CCN(c2ncc(C(F)(F)F)cc2Cl)CC1 | – | active: 16.4 µM |
| O=C(CN1CCN(S(=O)(=O)c2ccc(Br)s2)CC1)NC1CCCCC1 | – | active: 10.3 µM |
| COCCNC(=O)c1c[nH]c2ccc(S(=O)(=O)N(C)c3ccc(C)c(C)c3)cc2c1=O | – | inconclusive: 36.6 µM [rising, single point] |
| S=c1[nH]ccn1-c1cccc(Cl)c1Cl | inactive: 20.6% | – |
| COc1cc(C(=O)N2CCN(c3ccc(C)cc3C)CC2)cc(OC)c1OC | – | inconclusive: 2.59 µM [cytotoxic, full curve] |
| CCN(CC)S(=O)(=O)c1ccc(C(=O)NCCSc2c(-c3ccc(F)cc3)[nH]c3ccccc23)cc1 | inactive: -6.29% | – |
| c1ccc2c(c1)Cc1ccccc1O2 | inactive: -1.46% | – |
| CN(CC(=O)Nc1c(Cl)cccc1Cl)C(=O)CNC(=O)c1ccc2ccccc2c1 | – | inconclusive: 11.6 µM [cytotoxic, partial curve] |
| COc1ccc(OC)c(NS(=O)(=O)c2ccc(-n3cccn3)cc2)c1 | – | inconclusive: 29.1 µM [cytotoxic, single point] |
| CCn1c(SCC(=O)NC(C)C(C)C)nc2cc(S(=O)(=O)N3CCOCC3)ccc21 (stereo not drawn) | – | inconclusive: 18.4 µM [cytotoxic, single point] |
| Cc1nc(C(F)(F)F)c(C(=O)N/N=C(\N)c2ccccn2)s1 | – | inconclusive: 0.58 µM [cytotoxic, full curve, poor fit] |
| COc1ccc(N(C)S(=O)(=O)c2cccc(C(=O)Nc3nnc(C4CC4)s3)c2)cc1 | – | inconclusive: 25.9 µM [cytotoxic, single point] |
| COc1ccccc1N1CCN(S(=O)(=O)c2ccc(-n3cnnn3)c(C)c2)CC1 | – | inconclusive: 6.51 µM [cytotoxic, partial curve] |
| Cc1ccc2c(c1)nnn2C1CCN(S(=O)(=O)c2ccc(C(=O)N(C)C)cc2)CC1 | – | active: 9.2 µM |

| Compound | activity change, negative = cytotoxicity | Potency |
| --- | --- | --- |
| COc1ccc(C2(c3ccc(OC)cc3)NC(=O)N(CC(=O)Nc3cc(C)ccc3OC)C2=O)cc1 | inactive: -12.1% | – |
| O=C(NCc1ccccc1)c1cc(C2CCCCN2S(=O)(=O)c2cccs2)on1 (stereo not drawn) | inactive: 2.08% | – |
| O=C(Cn1ncc(Cl)c(Cl)c1=O)N1CCc2ccccc21 | – | inconclusive: 29.1 µM [cytotoxic, single point] |
| COc1ccc(NC(=O)CN(C)C(=O)C2CCCO2)cc1 (stereo not drawn) | – | inconclusive: 29.1 µM [rising, single point] |
| COc1ccc(C)cc1S(=O)(=O)N1CCN(C/C=C/c2ccccc2)CC1 | – | active: 18.4 µM |
| O=C(CSc1nnc(CNC(=O)c2cccs2)o1)Nc1ccc(Cl)cc1 | – | inconclusive: 18.4 µM [rising, single point] |
| O=C1/C(=N\S(=O)(=O)c2cccs2)C([n+]2ccc(CCCc3ccccc3)cc2)=C([O-])c2ccccc21 | – | inconclusive: 25.9 µM [rising, single point] |
| CCCCNC(=O)C(CC)Sc1nc2ccccc2c(=O)n1Cc1ccco1 (stereo not drawn) | inactive: 12% | – |
| CCN1/C(=C/c2ccc3cc(C)ccc3[n+]2CC)Sc2ccc3sccc3c21 | inactive: -22% | – |
| COc1ccc(OC)c(-c2cc(C3CCN(c4ncccc4[N+](=O)[O-])CC3)[nH]n2)c1 | – | inconclusive: 29.1 µM [cytotoxic, single point] |
| CC(C)c1ccc(C(=O)N2CCCCC2c2cc(C(=O)NCc3cccnc3)no2)cc1 (stereo not drawn) | inactive: 4.72% | – |
| COc1ccc(OCC(O)CN2CCCCCC2)cc1 (stereo not drawn) | – | inconclusive: 16.4 µM [cytotoxic, single point] |
| Cn1c(=O)c2c(nc(Br)n2Cc2ccc3ccccc3c2)n(C)c1=O | – | active: 2.59 µM |
| CN(C)c1ccc(/C=C/c2cc(Cl)nc3ccccc23)cc1 | – | active: 13 µM |
| COc1ccc(NC(=O)C23CC4CC(C2)CC(c2ccccc2)(C4)C3)c(OC)c1 | – | active: 14.6 µM |
| COc1ccc(C(=O)/C=C/C(=O)N(CC(=O)NCCC(C)C)Cc2cccs2)c(O)c1 | – | active: 10.3 µM |
| FC(F)(F)c1cccc(NC(=S)Nc2cccc(NC(=S)Nc3cccc(C(F)(F)F)c3)n2)c1 | – | inconclusive: 16.4 µM [cytotoxic, single point] |
| CCOc1ccc(-c2nc(S(=O)(=O)c3ccccc3)c(NCc3cccnc3)o2)cc1 | inactive: -21.2% | – |
| COc1ccccc1CNn1c(-c2cccc(C)c2)nc2ccccc2c1=O | – | active: 23.1 µM |
| Cc1cc(=O)oc2cc(OCC(=O)OCC(=O)Nc3ccc4ccccc4c3)ccc12 | – | inconclusive: 9.2 µM [rising, single point] |
| Cc1ccc(C(=O)c2sc(Nc3ccccc3)c(S(=O)(=O)c3ccccc3)c2N)c(C)c1 | – | inconclusive: 9.2 µM [cytotoxic, partial curve] |
| Cc1cc(C)c2c(NC(=O)C3CC3)nn(C)c2n1 | – | inconclusive: 0.0073 µM [rising, full curve] |
| CC(=O)c1cccc(NC(=S)NC(=O)c2ccccc2)c1 | – | inconclusive: 18.4 µM [cytotoxic, single point] |
| CCCCCOC(=O)NCCOC(=O)Nc1ccc(C(=O)OCC)cc1 | – | active: 16.4 µM |
| COc1ccc(C(=O)/C(=C/N(C)C)S(=O)(=O)c2ccccc2)cc1 | – | inconclusive: 29.1 µM [rising, single point] |
| CCn1c(Cc2cccc3ccccc23)nnc1SCC(=O)Nc1nccs1 | – | active: 18.4 µM |

| Compound | activity change, negative = cytotoxicity | Potency |
| --- | --- | --- |
| CCOc1ccc(OCCNC(=O)c2oc3ccccc3c2COC)cc1 | – | active: 20.6 µM |
| CCN1CCN(CCOc2cccc(Oc3ccccc3)c2)CC1 | – | inconclusive: 20.6 µM [cytotoxic, single point] |
| O=C1NC(Cc2ccccc2)c2nc3ccc(Cl)cc3c(=O)n2-c2cc3ccccc3cc21 (stereo not drawn) | inactive: -0.129% | – |
| CCCCC(CCc1ccccn1)C(=O)c1ccccc1 (stereo not drawn) | – | active: 16.4 µM |
| COc1ccc(-c2coc3c(C(=O)NCC4CC4)cccc23)c(C)c1 | inactive: -19.7% | – |
| COCCNC(=O)C1CCN(Cc2cc3ccccc3n2Cc2ccc(C)cc2)CC1 | inactive: 12.9% | – |
| COc1cc(CNC2CCCCC2OC)cc(OC)c1OC (stereo not drawn) | inactive: -12.9% | – |
| O=C(/C=C/c1ccccc1Cl)N1CCN(c2ncccn2)CC1 | – | inconclusive: 18.4 µM [cytotoxic, single point] |
| Cc1ccc(C(=O)N/C(=C\c2ccc(-c3cc(Cl)ccc3Cl)o2)C(=O)NCc2cccnc2)cc1 | – | active: 16.4 µM |
| CC(C)OC(=O)CC(=O)CSc1nc2c(cc1C#N)CCCCC2 | – | inconclusive: 16.4 µM [rising, partial curve] |
| CN(CC(=O)Nc1ccc(F)cc1)C(=O)C1CCN(S(=O)(=O)c2ccc3c(c2)OCCO3)CC1 | inactive: 0% | – |
| CC(=O)c1c(C)[nH]c(C(=O)CSc2nnc(NC3CC3)s2)c1C | inactive: -5.54% | – |
| CNC(=O)c1sc(=S)n(-c2ccc(OC)cc2)c1N | – | inconclusive: 16.4 µM [rising, partial curve] |
| Cn1c(-c2c(N)n(-c3ccccc3)c3nc4ccccc4nc23)nc2ccccc21 | – | inconclusive: 1.84 µM [cytotoxic, full curve, poor fit] |
| Cc1ccc(-c2cc(-c3ccccc3)c3c(N)c(S(C)(=O)=O)sc3n2)cc1 | – | inconclusive: 18.4 µM [cytotoxic, single point] |
| O=C(C(c1ccccc1)c1ccccc1)N1CCCc2ccccc21 | – | inconclusive: 2.31 µM [cytotoxic, partial curve, poor fit] |
| O=S(=O)(c1ccccc1)N1CC2CC(Br)C(Br)CC21 (stereo not drawn) | inactive: -26% | – |
| C=CCOc1ccc(C=CC(=O)c2c(O)c(OC)c(OC)c(OC)c2OC)cc1 | – | active: 5.8 µM |
| Cn1nnnc1SC1CC(=O)N(c2ccccc2)C1=O (stereo not drawn) | inactive: 1.63% | – |
| COc1ccc(N2CCN(CCNC(=O)C3CC(=O)N(C4CCCC4)C3)CC2)cc1 (stereo not drawn) | inactive: -5.09% | – |
| COC(=O)c1c(NC(=O)c2ccccc2)sc2c1CC(C)(C)NC2(C)C | inactive: 4.6% | – |
| c1ccc(-c2ccc3c(c2)c2c4n3CCN=C4CCC2)cc1 | – | active: 10.3 µM |
| Cc1ccc(NC(=O)C(OC(=O)c2ccc(C=O)cc2)c2ccccc2)cc1Cl (stereo not drawn) | inactive: -3.15% | – |
| COC(=O)Cc1[nH]n(-c2nc3ccccc3s2)c(=O)c1C(C)=Nc1ccc(C)cc1 | – | inconclusive: 16.4 µM [cytotoxic, single point] |
| CC(C)(COC(=O)Nc1ccccc1)COC(=O)Nc1ccccc1 | – | inconclusive: 20.6 µM [cytotoxic, single point] |
| O=C1NC(=Nc2cccnc2)S/C1=C/c1ccc(F)cc1 | – | inconclusive: 13 µM [cytotoxic, partial curve, poor fit] |

Reprinted from the listing for reference:

| Compound | activity change, negative = cytotoxicity | Potency |
| --- | --- | --- |
| Cn1c(-c2c(N)n(-c3ccccc3)c3nc4ccccc4nc23)nc2ccccc21 | – | inconclusive: 1.84 µM [cytotoxic, full curve, poor fit] |
| Cc1ccc(-c2cc(-c3ccccc3)c3c(N)c(S(C)(=O)=O)sc3n2)cc1 | – | inconclusive: 18.4 µM [cytotoxic, single point] |
| O=C(C(c1ccccc1)c1ccccc1)N1CCCc2ccccc21 | – | inconclusive: 2.31 µM [cytotoxic, partial curve, poor fit] |
| O=S(=O)(c1ccccc1)N1CC2CC(Br)C(Br)CC21 (stereo not drawn) | inactive: -26% | – |
| C=CCOc1ccc(C=CC(=O)c2c(O)c(OC)c(OC)c(OC)c2OC)cc1 | – | active: 5.8 µM |
